# In all, about 33,000 sequences were measured (“E-score (-0.5 to 0.5)”: median about -0.0034, highest 2% from about 0.25 on). The list shows a part of the results.
# Target: T1, Yap3 (UniProt P38749)
# T1 sequence: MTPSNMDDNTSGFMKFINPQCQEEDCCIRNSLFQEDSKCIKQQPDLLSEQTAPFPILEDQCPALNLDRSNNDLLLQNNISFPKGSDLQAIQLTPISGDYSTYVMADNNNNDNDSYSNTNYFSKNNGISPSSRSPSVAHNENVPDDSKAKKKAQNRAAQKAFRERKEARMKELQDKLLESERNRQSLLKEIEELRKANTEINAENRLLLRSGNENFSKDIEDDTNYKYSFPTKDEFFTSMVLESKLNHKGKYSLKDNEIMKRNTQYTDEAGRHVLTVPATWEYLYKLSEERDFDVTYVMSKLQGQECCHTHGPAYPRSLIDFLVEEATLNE
# Assay: PBM E-score (8-mer binding enrichment) (E-score (-0.5 to 0.5)); higher = stronger / more preferred TF binding
# Settings: protein concentration: 100 nM; construct: GST-full length
# In short: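 Full-length yeast transcription factors or their DNA-binding domains, GST-tagged and expressed with PURExpress, were applied at about 100-200 nM to universal all-10-mer Agilent arrays. These arrays had been made double-stranded by primer extension on fresh or once-stripped slides. Detection used fluorescent anti-GST, normalisation used masliner, and E-scores for ungapped eight-base words pooled with reverse complements came from the Universal PBM Analysis Suite.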
row,Sequence,PBM E-score
1,TACGAAAA,0.144
2,ACTAAAAC,0.182
3,CGGCAACA,0.121
4,AATAATGC,0.216
5,CCCCGACC,-0.237
6,AAACCTGC,-0.00698
7,CGTCACCA,0.0237
8,AGAGTTTG,0.00236
9,TACGCCTA,-0.057
10,GGGTGTCA,-0.127
11,ACGGGCTA,-0.0605
12,TAATCTCA,0.219
13,GCTTGCAA,0.095
14,ATAGGTAG,-0.0453
15,AAGTTAAA,0.163
16,ACATGGCG,-0.105
17,CCGCGACG,-0.179
18,CTTCTGAA,0.0313
19,GGAATGGA,-0.0717
20,CCAGGGCC,-0.37
21,AAGTCCAG,-0.0614
22,AGACCGAG,-0.0151
23,GCGAATAA,0.0154
24,AAAAAGAG,0.0691

row,Sequence,PBM E-score
1,CGGGACGA,-0.103
2,ACTTAAGC,-0.0238
3,AATTCTAC,0.162
4,ACGATAAG,0.0976
5,AAAGGGCC,-0.296
6,CTGGGAAG,-0.123
7,ATTGGCGC,-0.0226
8,CTGAGAAC,0.122
9,TCATTTCA,0.122
10,CAAATGTC,-0.0527
11,ATGCACCC,-0.00077
12,AGCCCACA,-0.117
13,ACATGGAC,-0.0827
14,GGGGTATA,-0.0253
15,CGGCATTC,0.0554
16,GGACAAAA,0.172
17,CACTCGAC,-0.0984
18,CCAAAACC,0.00906
19,ACTGTCTG,-0.134
20,AAATAGTA,0.209
21,AGCCAGCC,-0.184
22,GTCAACAA,0.0405
23,CTGTGTAC,0.0905
24,ACCAACAT,0.0802

row,Sequence,PBM E-score
1,AAGCTAAT,0.0795
2,CGTGGGGC,-0.333
3,AGTTATCG,0.13
4,GCCGCCTA,-0.129
5,GGTCACCA,-0.33
6,CCGTACTC,-0.142
7,CTATCGAG,-0.0268
8,CAGATCCA,0.00919
9,CAGGTGAA,0.0248
10,CCAGCGAA,-0.104
11,TGACCGAA,0.0396
12,CATAAGAC,0.203
13,ATGGGTAG,-0.0623
14,AAACCAAA,0.0991
15,ACTGTAAA,0.257
16,GCAGCACA,0.0133
17,GGCAGTAA,0.0144
18,GAACTTGC,-0.121
19,CTTCGATA,0.047
20,GAGGATTA,0.133
21,GCCGACAC,-0.135
22,ACCCGGAG,-0.0785
23,CCCGAAAA,0.0902
24,CGGGGGTA,-0.0997

row,Sequence,PBM E-score
1,AGTGTGCC,0.0509
2,CATGTACC,-0.14
3,GCCTGCCA,-0.092
4,AATGCTGT,-0.00234
5,CACGCTTA,0.125
6,AGGCTAAT,0.119
7,CATCTTGA,-0.0437
8,ACTGACCG,-0.0919
9,AACGCATT,0.0955
10,ATCTTGAG,0.0293
11,CAGGGCGA,-0.118
12,GGGACGAA,-0.259
13,CGTGACAA,-0.06
14,CTTCCCGA,0.0207
15,GGAGATAC,-0.18
16,CGTCGCAG,-0.0218
17,AGCCCAAC,0.0103
18,AGTCATCA,0.03
19,ATCGACTC,-0.161
20,CCCGGTGA,-0.265
21,CAATGATG,0.127
22,GGATGGTA,0.159
23,GGACATTA,0.18
24,ACGTAACC,0.13

row,Sequence,PBM E-score
1,GGCTACCA,-0.225
2,AGCCACCT,-0.187
3,ATAGGACG,0.0434
4,ATGATTAG,0.124
5,TGATAAAA,0.168
6,GATTTCAA,0.0767
7,GGTTCTGA,-0.0196
8,GCATGCGA,0.161
9,GCCGTGAC,-0.017
10,CGTTACGA,0.051
11,CCCCTCCC,-0.172
12,ATGGCCCA,-0.1
13,AATCAAGA,0.167
14,TAAAAGTA,0.195
15,AATGTCGT,0.0725
16,CGAACGTA,0.0095
17,GGCCGCAA,-0.0704
18,CCATGTCC,-0.0944
19,CTGGGTCC,-0.332
20,AGAGACAC,-0.164
21,ACGTAAAT,0.174
22,AGAAAACT,0.163
23,GCGAACCC,-0.162
24,ACGGACCC,-0.204

# Individual results from above:
# Value for TGACCGAA under PBM E-score: 0.0396
# Value for GGTTCTGA under PBM E-score: -0.0196
# Value for GGACATTA under PBM E-score: 0.18

# Continued:

row,Sequence,PBM E-score
1,ACTTCCTA,0.0716
2,CGTTAGAA,0.0499
3,GCAGCACC,-0.145
4,ACACTAAA,0.261
5,AGCGCGTC,-0.0689
6,AATGACTC,-0.114
7,CAGTGGGC,-0.232
8,CAATGGCC,-0.262
9,GACATCAC,-0.0593
10,CCCCTGCA,-0.366
11,GTAACTAA,0.163
12,CGGGTGCA,-0.126
13,CTCTGTCC,-0.0934
14,CATCACGA,-0.112
15,ATACATTC,0.0366
16,CTAGGCAA,-0.153
17,ACAAGAGA,0.113
18,GACTTGCC,-0.278
19,AATGACAG,0.142
20,AGCCCGGA,-0.233
21,CATATTGA,0.0743
22,CGGTGCTA,-0.00548
23,CATCTAAC,-0.11

# Source: the supplement of paper PMC3334620
